Assay results published in US20210267900A1, “PROCESSING METHOD FOR DRUG SUBSTANCE PARTICLES OF NON-UNIFORM PARTICLE SIZE” (NIPPON ZOKI PHARMACEUTICAL CO., LTD., priority 2018, published 2021).
At least one structure is not confirmed: it was looked up by name or label, or the drawing left a doubt.

Experiment: Particle size distribution by sieving method (ro-tap-type sieve shaker)
Type: physicochemical
Conditions: drug substance before processing, % by weight

Cc1ccc(-c2cc(C(F)(F)F)nn2-c2ccc(S(N)(=O)=O)cc2)cc1 [Celecoxib, celecoxib]
particles each having a particle size of 60 μm or less: 18.5% in 100% of celecoxib)
particles each having a particle size of 500 μm or more: or more made up 32.1% and particles each
particles each having a particle size of 60 μm or less (listed as celecoxib): 18.5%
particles each having a particle size of 500 μm or more (listed as celecoxib): 32.1%
